Assay [1] concerns the target Human CARM1 (PRMT4) (Homo sapiens, UniProt Q86X55). Kind of assay: CARM1 enzyme assay on peptide substrates (3H-SAM Flashplate). The settings on record: read-out: Biochem IC50; Biochemical assay; CARM1 0.25 nM, 3H-SAM 30 nM, peptide 250 nM.
For assay [2], the system named is asymmetric di-methyl PABP1 in RKO cells. Nature of the assay: RKO methylation assay: In Cell Western (ICW) for asymmetric di-methyl PABP1 (PABP1me2a). The settings on record: read-out: Cellular IC50, Cellular-based (PABP1me2a) ICW (In Cell Western) assay, 48 hours. An excerpt:
RKO adherent cells were purchased from ATCC (American Type Culture Collection), Manassas, Va., USA. DMEM/Glutamax medium, penicillin-streptomycin, heat inactivated fetal bovine serum, 0.05% trypsin and D-PBS were purchased from Life Technologies, Grand Island, N.Y., USA. Odyssey blocking buffer, 800CW goat anti-rabbit IgG (H+L) antibody, and Licor Odyssey infrared scanner were purchased from Licor Biosciences, Lincoln, Nebr., USA. Asymmetric di-methyl PABP1 antibody was purchased from Cell Signaling Technology, Danvers, Mass., USA. Methanol was purchased from VWR, Franklin, Mass., USA. 10% Tween 20 was purchased from KPL, Inc., Gaithersburg, Md., USA. Paraformaldehyde (PFA) was purchased from EM Sciences. DRAQ5 was purchased from Biostatus Limited, Leicestershire, UK.
RKO adherent cells were maintained in growth medium (DMEM/Glutamax medium supplemented with 10% v/v heat inactivated fetal bovine serum and 100 units/mL penicillin-streptomycin) and cultured at 37° C. under 5% CO2.
Cell treatment, In Cell Western (ICW) for detection of asymmetric di-methyl PABP1 and DNA content: RKO cells were seeded in assay medium at a concentration of 30,000 cells per mL to a poly-D-lysine coated 384 well culture plate (BD Biosciences 356697) with 50 μL per well. Compound (100 nL) from a 96-well source plate was added directly to 384 well cell plate. Plates were incubated at 37° C., 5% CO2 for 48 hours. After two days of incubation, plates were brought to room temperature outside of the incubator for ten minutes and blotted on paper towels to remove cell media. […]
First, the ratio for each well was determined by:
Each plate included fourteen control wells of DMSO only treatment (minimum inhibition) as well as fourteen control wells for maximum inhibition treated with 20 μM of a reference compound. The average of the ratio values for each control type was calculated and used to determine the percent […] for each test well in the plate. […]
Percent inhibition was determined and IC50 curves were generated using triplicate wells per concentration of compound.

Sequences of proteins named here, by UniProt entry; tags and fusion partners are left off. Residues count along the entry.
UniProt Q86X55, 1-585 isoform 1: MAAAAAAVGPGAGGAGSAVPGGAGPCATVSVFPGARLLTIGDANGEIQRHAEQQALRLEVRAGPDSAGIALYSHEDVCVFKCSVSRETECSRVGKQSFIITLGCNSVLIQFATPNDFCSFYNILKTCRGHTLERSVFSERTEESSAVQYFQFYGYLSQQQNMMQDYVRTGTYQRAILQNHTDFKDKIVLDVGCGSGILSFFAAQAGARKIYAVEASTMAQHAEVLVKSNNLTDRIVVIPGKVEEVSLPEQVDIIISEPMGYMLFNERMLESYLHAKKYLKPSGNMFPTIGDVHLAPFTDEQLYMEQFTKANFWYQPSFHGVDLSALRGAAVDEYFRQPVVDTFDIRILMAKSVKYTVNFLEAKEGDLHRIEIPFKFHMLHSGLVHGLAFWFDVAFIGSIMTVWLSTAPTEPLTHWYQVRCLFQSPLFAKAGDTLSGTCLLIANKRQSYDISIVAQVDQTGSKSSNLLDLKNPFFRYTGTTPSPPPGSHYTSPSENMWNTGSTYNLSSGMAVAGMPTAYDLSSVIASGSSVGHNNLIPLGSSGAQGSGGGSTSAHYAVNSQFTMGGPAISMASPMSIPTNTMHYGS

The structures appear in SMILES notation. Structures were worked out from names or drawings and are uncertain.

What is called IC50 is the concentration needed to halve the response being measured. For `CNC[C@@H](O)COc1ccc(Cl)c(-c2nc(-c3c(C)noc3C)c(C)c(N3CC4(CC(C(=O)N5CCOCC5)C4)C3)n2)c1`, the IC50 was found to be 0.0074 µM in assay [1] and 0.239 µM in assay [2].

Turning to `CNC[C@@H](O)COc1ccc(Cl)c(-c2nc(-c3c(C)noc3C)c(C)c(N3CC4(CC=CCC4)C3)n2)c1`, the figures for the IC50 in assay [1] and in assay [2] were 0.0041 µM and 0.195 µM, respectively.

Regarding `CNC[C@@H](O)COc1ccc(Cl)c(-c2nc(-c3c(C)noc3C)c(C)c(N3Cc4cnc(OC(C)C)nc4C3)n2)c1`, the IC50 in assay [1] turned out to be 0.0037 µM; in assay [2], 0.039 µM.

Source of the values: US20170305922A1, “CARM1 INHIBITORS AND USES THEREOF” (Epizyme, Inc., priority 2014, published 2017).
